This series has as its system IL-2 production. Kind of series: Interleukin-2 assay (IL-2 production by ELISA after PHA/TPA stimulation). The format is cell-based, human. To be noted: ratio of cell viability/IL-2 inhibition. On the procedure: Jurkat E6-1 cell line (ATCC), a human leukemic T cell line or lymphocytes prepared from fresh human blood, are grown in complete culture medium consisting of RPMI-1640 (Mediatech) supplemented with 10% v/v fetal bovine serum (HyClone, Logen, Vermont), penicillin (100 units/mL), streptomycin ([…]), and 2mM L-glutamine (GIBCO, Grand Island, New York). The cells are grown to a concentration of between 1.2 to 1.8 X 10^6 cells/mL before use. The cells are then centrifuged at low speed and resuspended to a concentration of 1.25 X 10^6 cells/mL in fresh medium.
The compounds to be tested are dissolved in DMSO, and water is added to make a 50% DMSO/water solution. The compounds are then diluted in sterile water such that the DMSO concentrations are less then 0.05%. The cells at a concentration of 1.25 X 10^6 cells/mL are stimulated with phytohemagglutinin 10 µg/mL (PHA) and 10^-8 M phorbol ester (12-O-tetradecanoylphorbol 13-acetate: TPA), (Sigma, St. Louis, Missouri). The compounds are then added and the cells are plated in flat-bottom tissue culture plates (Falcon, Lincoln Park, New Jersey), with 250,000 cells/well. Plates are then incubated at 37°C in a 5% CO2 atmosphere.
After incubation (16-24 hours), the cells are assayed for IL-2 production and cell viability (MTT). IL-2 production is assayed utilizing a solid phase ELISA immunoassay, sold in kit form by R&D Systems, Inc., Minneapolis, Minnesota.
For orientation: In an ELISA, binding on a coated surface is turned into a signal by an enzyme label.
Take `CC(C)C12OC1C1OC13C1(C)CCC4=C(COC4=O)C1CCC3(O)C2O` (stereo not drawn) [Example 1, [5aR-(5aα,6α,6aα,7aα,7bβ,8aS*,8bα)]-3,3b,4,5,5a,6,6a,7a,7b,8b,9,10-dodecahydro-5a,6-dihydroxy-8b-methyl-6a-(1-methylethyl)-1H-bisoxireno[4b,5:6,7]phenanthro[1,2-c]furan-1-one]: the MTT/IL-2 is reported as 8 to 14.

For the compound `CC(C)[C@]12O[C@H]1[C@@H]1O[C@]13[C@]1(O[C@H]1C[C@H]1C4=C(CC[C@@]13C)C(=O)OC4)[C@@H]2O` [Triptolide], the MTT/IL-2 lay in the range of 2 to 4.

With “[1S-(1α,2β,3α,3aβ,4aR*,4bα,11aα)]-3-chloro-1,2,3,3a,4b,5,6,9,9b,10,11,11a-dodecahydro-1,2,11a-trihydroxy-4b-methyl-2-(1-methylethyl)-7H-oxireno[4b,5]phenanthro[1,2-c]furan-7-one [Example 2]”, the MTT/IL-2 came out at 9.

Values taken from EP0983275B1, “NOVEL TRIPTOLIDE DERIVATIVES USEFUL IN THE TREATMENT OF AUTOIMMUNE DISEASES” (priority 1997, dated 1998).
